# From patent US20230126310A1 (priority 2020, published 2023)
# Test system: SARS-CoV-2
# Test: microbe, parasite or virus in culture
# Conditions: Severe acute respiratory syndrome coronavirus 2, Caco-2, 48 h, read-out: % Inh. (% Inhibition of SARS-CoV-2)
compound,measurement,value
O=C(CCCN1CCC2(CC1)C(=O)NCN2c1ccccc1)c1ccc(F)cc1 [spiperone],inhibition at 10 µM,56.9%
